Experimental data from patent US12540174.
No constants are given. Whether binding was seen depends on the method and setting. Some binding calls cover weakened binding; strength is not graded here.

Chains of the proteins cited; added tags and fusions are not shown. Residues count along the entry.
UniProt P08670, residues 2-466: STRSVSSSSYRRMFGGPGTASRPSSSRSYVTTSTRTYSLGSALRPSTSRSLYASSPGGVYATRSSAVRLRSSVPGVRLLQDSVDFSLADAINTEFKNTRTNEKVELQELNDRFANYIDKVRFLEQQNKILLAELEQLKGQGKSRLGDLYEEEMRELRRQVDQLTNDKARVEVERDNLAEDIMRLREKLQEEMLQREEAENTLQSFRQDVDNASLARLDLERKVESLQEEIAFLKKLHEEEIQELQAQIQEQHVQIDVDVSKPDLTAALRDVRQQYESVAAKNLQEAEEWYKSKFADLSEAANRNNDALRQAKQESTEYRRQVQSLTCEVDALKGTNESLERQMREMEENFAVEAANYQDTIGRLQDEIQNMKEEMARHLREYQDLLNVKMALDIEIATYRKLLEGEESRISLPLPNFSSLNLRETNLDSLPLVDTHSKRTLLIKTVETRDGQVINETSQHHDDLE

Experiments:
[1] = target: vimentin on the cell surface of U251 glioma cells (UniProt P08670); experiment: flow cytometry on glioma cells (U251), pritumumab 160 nM, Ax488 FITC-A channel
[2] = target: vimentin on the cell surface of U251 glioma cells (UniProt P08670); experiment: flow cytometry on U251 glioma cells, Ax488 FITC-A channel; antibody concentration not given for this figure
[3] = target: vimentin on the cell surface of U251 glioma cells (UniProt P08670); experiment: flow cytometry on U251 glioma cells

Measured: binding

B1: pritumumab (antibody, human IgG1, kappa, V domains shown)
VH: EVQLLESGGDLVQPGGSLRLSCAASGFTFSNYAMSWVRQAPGKGLEWVSAITPSGGSTNYADSVKGRFTISRDNSQNTLYLQMNSLRVEDTAVYICGRVPYRSTWYPLYWGQGTLVTVSS
VL: DIQMTQSPSSLSASVGDRVTITCRASQDISNYLAWFQQKPGKAPKSLIYAASSLHSKVPTQFSGSGSGTDFTLTISSLQPEDFATYYCLQYSTYPITFGGGTKVEIKR
binds: all assays above
